PubChem BioAssay AID2685 (National Center for Advancing Translational Sciences (NCATS), 2010)
Screen size: about 320,000 compounds; about 2,100 (0.66%) were called active. This list was built around the results that the source calls inconclusive (neither active nor inactive); the mix of calls is not that of the screen. Calls come from the whole dose curve; as a rule, active = well fitted inhibition curve with a large enough effect in the signal ratio, with a control signal flat (not every such curve was filed as active); inconclusive = small, poorly fitted or top-dose-only effect, or effect the other way, or a change in a side signal; inactive = flat fitted curve, though single readings scatter; the % refers to the signal ratio. Where the call is inconclusive, the potency comes from a doubtful curve fit.

Experiment: qHTS Assay for Lipid Storage Modulators in Drosophila S3 Cells
Conditions: BODIPY lipid droplet fluorescence, 18-24 h, cells fed with added oleic acid; lipid storage change, negative = inhibition: at 46.1 µM (top of the series) unless noted
How it was run: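 Drosophila S3 cells got compounds at several concentrations plus oleic acid (400 uM solution). Laser-scanning cytometry with 488 nm excitation read lipid droplets at 500-530 nm and cells at 575-640 nm. Percent activity was relative to 20 uM Triacsin C.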
% is set by controls: 0 for no effect and ±100 for the full control effect; potency is the fitted concentration of half-maximal effect.

Which Potency does the source give for `NC(=O)c1ccc(Oc2ccc3c(c2)CCC3)c([N+](=O)[O-])c1` here?
Its Potency is active: 2.91 µM.

For `CN(C)N(Cc1ccccc1)C(=O)C(O)(c1ccccc1)c1ccccc1`, which Potency is on record?
Its Potency is inconclusive: 29.1 µM [falling, single point].

With `Cc1cc(C)c(OCC(=O)OCC(=O)N2CCc3ccccc3C2)c(C)c1` as the compound, how does the Potency read?
The Potency was inconclusive: 29.1 µM [activator, single point].

For `CCc1cccc(C)c1NS(=O)(=O)c1cc(Br)cnc1N`, which lipid storage change, negative = inhibition is on record?
Its lipid storage change, negative = inhibition is inconclusive: -48.2%.

With `C/C=C/c1ccc(OCC(O)CN(C)Cc2ccc(SC)cc2)c(OC)c1` (configuration not stated) as the compound, how does the lipid storage change, negative = inhibition read?
Its lipid storage change, negative = inhibition is inconclusive: -23.5%.

For `CN(C)C(CNC(=O)c1ccc2ccccc2c1)c1ccco1` (configuration not stated), which lipid storage change, negative = inhibition is on record?
The lipid storage change, negative = inhibition was inconclusive: 18.8%.

With `COCc1cc(C)nc2sc(C(=O)N3CCCCC3)c(N)c12` as the compound, how does the Potency read?
The Potency was inconclusive: 0.058 µM [activator, full curve, poor fit].

Which lipid storage change, negative = inhibition does the source give for `Cc1nn(C)c(C)c1C(C)NC(=O)c1cc(COc2ccc(F)c(F)c2)on1` (configuration not stated) here?
The lipid storage change, negative = inhibition was inconclusive: 3.22%.

For `COC(=O)[C@H](Cc1ccccc1)NC(=O)Nc1ccc(C)cc1`, which lipid storage change, negative = inhibition is on record?
The lipid storage change, negative = inhibition was inconclusive: -17.1%.

With `COc1cccc(N2CCN(C(=O)CN(c3ccc(C)cc3)S(=O)(=O)c3c(C)n[nH]c3C)CC2)c1` as the compound, how does the lipid storage change, negative = inhibition read?
Its lipid storage change, negative = inhibition is inconclusive: 58.7% [activator].

With `COC(=O)c1ccc(COC(=O)CNC(=O)c2ccc(C)s2)cc1` as the compound, how does the lipid storage change, negative = inhibition read?
Its lipid storage change, negative = inhibition is inconclusive: -29.4%.

With `CCc1ccc(C)c(OC(=O)c2cncc(Br)c2)c1` as the compound, how does the Potency read?
Its Potency is inconclusive: 29.1 µM [activator, single point].

With `O=C1c2ccccc2C(=O)N1CCCOc1ccccc1` as the compound, how does the lipid storage change, negative = inhibition read?
Its lipid storage change, negative = inhibition is “inactive”.

For `CCN(CC(=O)Nc1cccc(OC)c1)C(=O)c1ccncc1`, which Potency is on record?
The Potency was inconclusive: 29.1 µM [activator, single point].

For `COc1cccc(SCC2CSc3nc4ccccc4c(=O)n32)c1` (configuration not stated), which lipid storage change, negative = inhibition is on record?
The lipid storage change, negative = inhibition was inconclusive: 27.8% [at 9.22 µM].

For `O=C(NCc1ccccc1Cl)c1cc2ccccc2oc1=O`, which Potency is on record?
The Potency was inconclusive: 29.1 µM [activator, single point].

Which Potency does the source give for `NC(=S)Nc1ccc2cc[nH]c2c1` here?
Its Potency is inconclusive: 0.731 µM [falling, partial curve, poor fit].

With `COc1cc(CC(=O)OCC(=O)Nc2ncc(Cl)cc2Cl)cc(OC)c1OC` as the compound, how does the Potency read?
Its Potency is inconclusive: 3.66 µM [activator, full curve].

Which lipid storage change, negative = inhibition does the source give for `O=C(Cc1ccc(F)cc1)Nc1ccc2[nH]ncc2c1` here?
The lipid storage change, negative = inhibition was inconclusive: 87%.

With `CCn1c(COc2ccccc2)nnc1SCC(=O)NCc1ccco1` as the compound, how does the lipid storage change, negative = inhibition read?
The lipid storage change, negative = inhibition was inconclusive: -16.3%.

For `O=C(COc1ccccc1[N+](=O)[O-])OCC(=O)N1CCC(Cc2ccccc2)CC1`, which lipid storage change, negative = inhibition is on record?
Its lipid storage change, negative = inhibition is inconclusive: -2.07%.

For `OCCC1CN(CC2CCCCC2)CCN1CC1CCCCC1` (configuration not stated), which Potency is on record?
Its Potency is inconclusive: 20.6 µM [activator, partial curve].

With `COc1ccc(/C=N/NS(=O)(=O)c2ccc(C)cc2)cc1OC(=O)c1ccccc1` as the compound, how does the lipid storage change, negative = inhibition read?
Its lipid storage change, negative = inhibition is inconclusive: 8.84%.

With `CCCCC[n+]1ccn(C2=C([O-])c3ccccc3C(=O)/C2=N\S(=O)(=O)c2ccc(Cl)cc2)c1` as the compound, how does the lipid storage change, negative = inhibition read?
The lipid storage change, negative = inhibition was inconclusive: -26%.

For `COc1ccc(CCn2c(-c3ccc(C(C)(C)C)cc3)n[nH]c2=S)cc1OC`, which lipid storage change, negative = inhibition is on record?
The lipid storage change, negative = inhibition was inconclusive: 4.65%.

For `CCCNC(=O)NC(=O)CSc1nc2ccccc2c(=O)n1Cc1ccncc1`, which lipid storage change, negative = inhibition is on record?
Its lipid storage change, negative = inhibition is inconclusive: 5.11%.

With `CS(=O)(=O)N1CCC(C(=O)NCC2CCCO2)CC1` (configuration not stated) as the compound, how does the Potency read?
Its Potency is active: 2.31 µM.

For `Cc1ccc(N(C(C)C(=O)Nc2ccc(S(=O)(=O)N3CCOCC3)cc2)S(C)(=O)=O)cc1` (configuration not stated), which Potency is on record?
The Potency was inconclusive: 0.0326 µM [falling, full curve, poor fit].

For `CS(=O)(=O)ON=C1CCN(S(=O)(=O)c2ccccc2)CC1`, which Potency is on record?
Its Potency is inconclusive: 18.4 µM [cytotoxic, single point].

With `CCc1cc2c3c([nH]c2cc1S(=O)(=O)NCCCOC)CC(C)(C)CC3=O` as the compound, how does the lipid storage change, negative = inhibition read?
Its lipid storage change, negative = inhibition is inconclusive: 7.53%.

With `Cc1ccc(-c2ccc(=O)n(CC(=O)NCc3ccco3)n2)cc1` as the compound, how does the lipid storage change, negative = inhibition read?
Its lipid storage change, negative = inhibition is inconclusive: 22.3%.

Which Potency does the source give for `COc1ccc(N2CCN(C(=O)CSc3nc4nc(C)cc(C)n4n3)CC2)cc1` here?
The Potency was inconclusive: 20.6 µM [activator, partial curve].

For `CC(C)N(NC(=O)c1cccc2ccccc12)C(C)C`, which lipid storage change, negative = inhibition is on record?
The lipid storage change, negative = inhibition was inconclusive: -1.7%.

For `O=C(c1ccc(Cn2c(=S)[nH]c3ccccc3c2=O)cc1)N1CCN(c2ccccn2)CC1`, which lipid storage change, negative = inhibition is on record?
Its lipid storage change, negative = inhibition is inconclusive: 11.8% [at 9.22 µM].

For `CCc1cc2ccccc2nc1SCC(=O)N1CCN(C(=O)c2ccco2)CC1`, which lipid storage change, negative = inhibition is on record?
Its lipid storage change, negative = inhibition is inconclusive: 19.5%.

Which lipid storage change, negative = inhibition does the source give for `CN(C(=O)COC(=O)/C=C/c1ccc(C(F)(F)F)cc1)C1CCS(=O)(=O)C1` (configuration not stated) here?
Its lipid storage change, negative = inhibition is inconclusive: 15.9%.

For `CCN(CC)c1ncnc2sc3c(c12)CCC3`, which lipid storage change, negative = inhibition is on record?
Its lipid storage change, negative = inhibition is inconclusive: 41.9%.

With `O=C(CCNS(=O)(=O)c1ccc(Cl)cc1)N1CCN(c2ccccn2)CC1` as the compound, how does the Potency read?
The Potency was inconclusive: 0.206 µM [falling, single point].

For `O=C(CN1CCOCC1)Nc1nc2ccc(F)cc2s1`, which lipid storage change, negative = inhibition is on record?
The lipid storage change, negative = inhibition was inconclusive: 4.84%.

With `O=C(COc1ccc2c(-c3ccccc3)cc(=O)oc2c1)N[C@H](Cc1c[nH]c2ccccc12)C(=O)O` as the compound, how does the lipid storage change, negative = inhibition read?
Its lipid storage change, negative = inhibition is inconclusive: 18.2%.

For `CCS(=O)(=O)N1CCC(C(=O)NCCCN2CCCCCC2)CC1`, which lipid storage change, negative = inhibition is on record?
Its lipid storage change, negative = inhibition is inconclusive: -22.1%.

For `CCOc1ccccc1NC(=O)NCc1ccc(F)cc1`, which lipid storage change, negative = inhibition is on record?
The lipid storage change, negative = inhibition was inconclusive: 28%.

Which Potency does the source give for `Cc1ccc(C)c(N(C(=O)Cn2nnc3ccccc32)C(C(=O)NCc2ccco2)c2ccncc2)c1` (configuration not stated) here?
The Potency was inconclusive: 2.31 µM [activator, partial curve].

For `CC(=O)Oc1cccc(N2C(=O)CC(Nc3ccc(N4CCOCC4)cc3)C2=O)c1` (configuration not stated), which lipid storage change, negative = inhibition is on record?
Its lipid storage change, negative = inhibition is inconclusive: 0.262%.

With `C#CCOCCOCCOCCNc1nc(N2CCN(C(=O)C(Cc3ccc(O)cc3)n3cc(C(N)C(C)CC)nn3)CC2)nc(N2CCN(C(=O)C(Cc3ccc(O)cc3)n3cc(C(N)C(C)CC)nn3)CC2)n1` (configuration not stated) as the compound, how does the Potency read?
Its Potency is inconclusive: 0.0231 µM [falling, full curve, poor fit].

With `Cc1c(F)cccc1NC(=O)CCC(=O)O` as the compound, how does the Potency read?
The Potency was inconclusive: 1.3 µM [falling, partial curve].

With `Cc1ccccc1Cn1c(C(=O)OC(C)C)cc2c1ccn2C` as the compound, how does the lipid storage change, negative = inhibition read?
The lipid storage change, negative = inhibition was inconclusive: -13.5%.
